These results are taken from PubChem BioAssay AID2685 (National Center for Advancing Translational Sciences (NCATS), 2010).

The other results are listed elsewhere or left out. The main result of the screen is listed elsewhere. These columns were measured beside it and carry no call. The list favours compounds with an active or inconclusive main result. Words in brackets tell the shape of the fitted curve; partial curves, single points and poor fits give uncertain potencies.

This test in a line: qHTS Assay for Lipid Storage Modulators in Drosophila S3 Cells.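 For cell number change: cells counted by Cell Tracker Red CMTPX staining in the red channel.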 Particulars: BODIPY lipid droplet fluorescence, 18-24 h; for cell number change: measured here: cell count max response, cells fed with added oleic acid. Summed up:
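Laser-scanning cytometry quantifies lipid droplet accumulation (500–530 nm total intensity; droplet/cell object ratio) in oleic acid-fed (400 uM added) Drosophila S3 cells treated with a concentration series. 20 uM Triacsin C defined 100% inhibition.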
A general note: qHTS replaces the single test concentration by a dilution series.

[1] abbreviates: measured here: lipid fluorescence (Fed channel) AC50, cells fed with added oleic acid.
Setting [2] is: measured here: cell number channel AC50, cells fed with added oleic acid.

Regarding `CCOc1cc(N2CCOCC2)c(OCC)cc1NC(=O)c1nc2nccc(C)n2n1`, the cell number change came out at 16.7%. The term AC50 denotes the concentration giving half of the maximal activity seen. A low value points to greater potency. On to `CCCc1c(C(=O)Nc2ccc(F)cc2)cnn1-c1ccccc1`, for which the cell number change is -21.2%. Further, under setting [1], the AC50 is 23.1 µM [falling, partial curve, poor fit]. Consider `Cc1ccc(C)c(C(=O)OCC(=O)Nc2ccc(N3CCOCC3)cc2)c1`, for which the cell number change is -68.1%. The AC50 under setting [2] is 3.66 µM [falling, partial curve].

On to `CCOc1ccc(-c2c(C(=O)N/N=C(\C)c3cccnc3)nnn2-c2nonc2N)cc1`, for which the cell number change is -13.1%. Also, under setting [1], the AC50 was 0.00517 µM [falling, full curve, poor fit]. Regarding `Cc1cc(C)c(S(=O)(=O)NCc2ccncc2)c(C)c1`, the cell number change is -40.6%. In addition, under setting [2], the AC50 was 0.82 µM [rising, single point].

As for `O=C(/C=C/c1ccc(Cl)c(Cl)c1)NC1=NCCS1`, the cell number change was -13%. The concentration at half-maximal activity (AC50) under setting [2] was 6.51 µM [falling, single point]. For the compound `CC(=O)c1cccc(NC(=O)C(C)OC(=O)CCCN=C2NS(=O)(=O)c3ccccc32)c1` (centres undefined), the cell number change came to 17.5%. Consider `O=C(c1ccc(Cl)cc1)[C@@H]1[C@@H]2C(=O)N(c3ccccc3)C(=O)[C@@H]2C2c3ccccc3C=NN21` (some centres undefined), for which the cell number change is -47.6%. In addition, under setting [2], the AC50 was 10.3 µM [falling, partial curve, poor fit]. `CC(=O)Nc1ccc(NC(=O)C(C)Oc2ccc(Cl)cc2Cl)cc1` (centres undefined): the cell number change was 31.7%. Consider `O=C(CCNC(=O)c1ccc(Br)cc1)NC1CCCCCC1`, for which the cell number change is -0.857%. The concentration at half-maximal activity (AC50) under setting [1] is 1.3 µM [rising, full curve]. As to `Cc1ccc(OCC(=O)NN=C2C3CC4CC(C3)CC2C4)cc1`, the cell number change was determined as 7.57%. Take `CCOc1ccc(NC(=S)N=Nc2c(O)[nH]c3ccccc23)cc1`: the cell number change is 45.1%. In addition, the AC50 under setting [1] was 4.11 µM [rising, full curve, poor fit].

Consider `O=C(COC(=O)C1(c2ccc(Cl)cc2)CCCC1)N1CCc2ccccc21`, for which the cell number change turned out to be 3.19%. Turning to `CCOc1ccccc1OCC(=O)OCC(=O)c1c(C)[nH]c2ccccc12`, the cell number change worked out at 31.7%. The AC50 under setting [2] was 11.6 µM [rising, partial curve].

Regarding `CCCc1ccc(C(=O)Cn2nc(C(=O)O)c3ccccc3c2=O)cc1`, the cell number change is 23%. For `COc1ccc(OC)c(NC(=O)c2nnn(Cc3ccccc3C)c2N)c1`, under setting [1], the AC50 was 0.731 µM [rising, single point]. With `c1ccc(-n2c(-c3ccco3)nnc2N2CCOCC2)cc1`, the cell number change was -1.81%. Besides, the AC50 under setting [1] was 6.51 µM [falling, single point]. For the compound `O=C(C1CC1)N1CCc2cc(Br)cc(S(=O)(=O)NCc3ccccn3)c21`, the cell number change came out at 12.9%. Take `COc1ccc(CNC(=O)CCc2nc3cc(S(=O)(=O)N(C)C)ccc3n2C)cc1OC`: the AC50 under setting [1] is 5.17 µM [falling, single point]. On to `Cc1onc(-c2ccccc2Cl)c1C(=O)Nc1ccc(Br)cc1`, for which the cell number change was -6.09%. In addition, the AC50 under setting [1] is 14.6 µM [falling, partial curve, poor fit]. Take `O=C(CSc1nnnn1C1CCCCC1)Nc1cccc(NC(=O)c2ccco2)c1`: the AC50 under setting [2] was 1.84 µM [rising, partial curve]. Turning to `CC(=O)Nc1ccc(NC(=O)CSc2nnc(NC(=O)C3CC3)s2)cc1`, the cell number change worked out at 15.2%. Moreover, the AC50 under setting [1] was 6.51 µM [rising, single point]. As for `N#CC1(NC(=O)Cn2cc(C(F)(F)F)ccc2=O)CCCC1`, the cell number change is -6.39%. `COc1ccc(-n2c(=O)[nH]cc(C(=O)Nc3ccc4c(c3)OCO4)c2=O)cc1OC`: the cell number change worked out at 19.4%. In addition, under setting [2], the AC50 was 1.64 µM [rising, partial curve, poor fit]. Also, under setting [1], the AC50 is 1.84 µM [rising, full curve, poor fit]. For `CCOC(=O)c1oc2ccccc2c1CSc1nnnn1-c1ccc(OC)cc1`, the concentration at half-maximal activity (AC50) runs as follows: under setting [2], 0.731 µM [rising, single point]; under setting [1], 0.326 µM [rising, partial curve, poor fit]. As to `COc1cc(C2NC(=O)C(C#N)=C(S)N2c2ccccc2)ccc1OC(C)C` (centres undefined), the cell number change was -18.6%. For the same compound, the AC50 under setting [1] was 16.4 µM [falling, single point]. As for `C[C@@H]1CCCCCCCCC(=O)OCCN1C(=O)OC(C)(C)C`, the cell number change is -45.6%. Also, under setting [2], the AC50 is 20.6 µM [falling, single point]. With `CCOc1ccc(NC(=O)CN(C)C(=O)c2ccc(N3CCOCC3)c([N+](=O)[O-])c2)cc1OCC`, under setting [2], the AC50 was 3.66 µM [falling, single point].

Consider `Nc1nnc(SCC(=O)Nc2cccc(S(=O)(=O)N3CCOCC3)c2)s1`, for which the AC50 under setting [1] is 0.259 µM [rising, partial curve, poor fit].

Regarding `O=C(CN(Cc1ccc(F)cc1)C(=O)CNS(=O)(=O)c1ccc(F)cc1)NCc1ccco1`, the cell number change turned out to be 0.84%. For the same compound, under setting [1], the AC50 was 20.6 µM [rising, single point]. For `O=C(NC1CCCCC1)C(c1ccco1)N(Cc1ccco1)C(=O)c1ccco1` (centres undefined), under setting [1], the AC50 is 1.64 µM [falling, partial curve]. For the compound `Cc1ccc(NC(=O)c2oc3ccccc3c2NC(=O)C2CCCO2)cc1C` (centres undefined), the cell number change worked out at 17.7%. Further, the AC50 under setting [1] was 0.411 µM [rising, partial curve, poor fit]. Consider `CN1CCN(C(=O)/C(=C/c2ccc(F)cc2)c2ccsc2)CC1`, for which, under setting [2], the AC50 is 1.84 µM [rising, partial curve]. As for `O=C(Cn1nc(C(F)(F)F)c2c1CCCC2)NCCN1CCOCC1`, the cell number change turned out to be 0.318%. Moreover, under setting [2], the half-maximal activity concentration (AC50) is 6.51 µM [falling, single point]. Besides, the AC50 under setting [1] is 1.03 µM [falling, full curve]. With `CCN(CC(=O)NCc1ccc(Cl)cc1)C(=O)/C=C/c1ccccc1`, the cell number change is 12.1%. In addition, under setting [1], the AC50 was 23.1 µM [rising, single point]. Turning to `O=S(=O)(NCc1ccccc1)c1cccs1`, the cell number change was -82.6%. Also, the AC50 under setting [2] was 18.4 µM [falling, single point]. As for `CCC1CN(C(=O)NCc2ccc(C)cc2)c2cc(C)ccc2O1` (centres undefined), the AC50 runs as follows: under setting [2], 1.64 µM [rising, partial curve]; under setting [1], 29.1 µM [rising, single point]. Regarding `O=C(Nc1cccnc1)C1CCCN1S(=O)(=O)c1ccc(Cl)c(Cl)c1` (centres undefined), the cell number change is -21%. As for `Cc1nnc2sc(SCc3ccccc3)nn2c1=O`, the cell number change was -10.5%. Under setting [1], the AC50 is 0.103 µM [falling, full curve, poor fit]. In the case of `Cc1ccc(/C=N/NC(=O)Cc2ccc(Cl)cc2)s1`, the cell number change is -25.2%. Under setting [1], the AC50 was 0.58 µM [falling, single point]. On to `O=C(CCNC(=O)Cn1ccc2ccccc2c1=O)NCCc1ccccc1Cl`, for which the cell number change is -22.4%. For the same compound, the AC50 under setting [1] was 16.4 µM [falling, partial curve, poor fit]. For the compound `Cc1ccc(NC(=O)NC2(C(=O)NCc3ccccc3)CCCCC2)cc1`, the cell number change came to 11.8%. Besides, the AC50 under setting [1] is 13 µM [rising, partial curve]. `CC(Oc1ccc(Cl)cc1)c1ccnc(N)n1` (centres undefined): the cell number change amounted to 14.3%. The half-maximal activity concentration (AC50) under setting [2] is 0.58 µM [falling, single point]. For the same compound, the AC50 under setting [1] is 0.58 µM [falling, single point]. As for `COc1cccc(C2CC(c3ccccc3)Nc3ncnn32)c1` (centres undefined), the AC50 is, setting by setting: under setting [2], 6.51 µM [rising, single point]; under setting [1], 0.651 µM [falling, single point].

As for `CCCn1nnnc1NC(=O)c1ccc(C)cc1Cl`, the cell number change is -5.27%. Further, the AC50 under setting [2] was 2.91 µM [rising, partial curve]. The AC50 under setting [1] is 2.91 µM [rising, single point]. Consider `Cc1sc2nc[nH]c(=S)c2c1-c1ccccc1`, for which the cell number change is -56%. In addition, the AC50 under setting [2] was 29.1 µM [falling, single point]. Under setting [1], the AC50 is 29.1 µM [falling, single point]. With `COC(=O)c1ccc(OCC2c3cc(OC)c(OC)cc3CCN2C(=O)C2CC2)cc1` (centres undefined), the cell number change was determined as 111%.

For `COc1cc(NC(=O)SC2=NCCS2)cc(OC)c1`, the cell number change is -1.72%. The AC50 under setting [2] was 6.51 µM [falling, single point]. Further, the AC50 under setting [1] is 6.51 µM [falling, single point]. Take `O=C(c1cn(-c2ccccc2)nc1-c1ccc(F)cc1)N1CCCCC1`: under setting [1], the AC50 is 29.1 µM [rising, single point].

Regarding `CC1=NN(c2ccccc2)C(=O)/C1=C/c1cccc(C)c1`, the AC50 under setting [1] was 0.58 µM [rising, single point]. On the same count and under the same terms, the value for `Cc1ccc(C)c(-c2nnc(NC(=O)c3ccc([N+](=O)[O-])o3)o2)c1` was 1.3 µM [rising, single point].

With `COc1ccc(C2=NN(CN3C(=O)C(=O)c4ccccc43)C(c3ccc(C)cc3)C2)cc1` (centres undefined), the cell number change is -68.5%. Moreover, under setting [1], the AC50 was 0.731 µM [rising, partial curve]. Consider `Cc1cc(C)c2[nH]c(=O)c(C(c3nnnn3Cc3ccc4c(c3)OCO4)N3CCCCC3)cc2c1` (centres undefined), for which the cell number change was -7.64%. The AC50 under setting [1] is 3.66 µM [rising, partial curve]. In the case of `CC(=O)N/C(=C\c1ccccc1)C(=O)OCC(=O)Nc1cc(S(=O)(=O)N(C)C)ccc1Cl`, the cell number change was -92.9%. For the same compound, the AC50 under setting [2] was 2.91 µM [falling, full curve, poor fit]. For the same compound, the AC50 under setting [1] was 0.58 µM [falling, full curve]. Turning to `O=C(CSc1nnc(Cn2nnc3ccccc32)o1)Nc1cccc(Cl)c1`, the cell number change is -0.743%. Take `CCn1c(SCC(=O)Nc2cc(C)ccc2C)nc2c(c1=O)SC(C)C2` (centres undefined): the cell number change is 58.2%. Besides, the AC50 under setting [2] was 0.0731 µM [rising, full curve]. Under setting [1], the AC50 is 0.0291 µM [rising, full curve, poor fit].

Turning to `Cc1ccc(NC(=O)C2CCN(C(=O)c3ccco3)CC2)cc1`, the cell number change stood at 21.7%. Also, the AC50 under setting [1] is 29.1 µM [rising, single point]. Consider `CCOC(=O)C1=NNC(C(=O)c2ccc(C)cc2)C1c1ccc(OC)cc1` (centres undefined), for which the AC50 under setting [1] is 2.59 µM [rising, partial curve]. As to `O=S(=O)(c1cccc2nonc12)N1CCN(c2cccc(Cl)c2)CC1`, the cell number change is 12.7%. Besides, under setting [1], the AC50 is 18.4 µM [rising, single point]. Turning to `Cc1cc(C)n(-c2ccnc3cc(Cl)ccc23)n1`, the AC50 under setting [1] was 29.1 µM [rising, single point].

Regarding `C/C(Cl)=C/Cn1c(NCCN(C)C)nc2c1c(=O)n(C)c(=O)n2C`, the cell number change came out at 2.22%. Further, the AC50 under setting [1] was 6.51 µM [falling, single point].

With `COc1ccc(/C=C2/C(=N)N3N=C(CC(=O)N4CCCC4)SC3=NC2=O)cc1`, the cell number change was -34.4%. For the same compound, the AC50 under setting [2] was 0.0517 µM [falling, full curve, poor fit].
